Values joined by “and” are separate entries in the source; they are usually repeats but may differ in a detail not shown here. Equal entries are not always repeated. The list shows a part of the results. Shown are side measurements of this screen, not its main read-out; they come without a call. The list favours compounds with an active or inconclusive main result. Potencies come from curve fits of mixed quality, noted in brackets.
Assay: qHTS Assay to Find Inhibitors of Chronic Active B-Cell Receptor Signaling
Details: ABC-DLBCL IkBa-CBG/CBR reporter, luminescence ratio (green luciferase fused to IkBa over red control in TMD8 lymphoma cells), 4 h
Summary of the method: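 Doxycycline induced both beetle luciferases in TMD8 lymphoma cells; IKK-driven degradation limits the IkappaBalpha-fused green signal, while red luminescence normalises for cell number and nonspecific effects. Compounds tested up to 46 uM, 4 hrs.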

[1] = measured here: CBR red luminescence, cell number
[2] = measured here: IkBa-CBG green luminescence

Compound	AC50 [1]	AC50 [2]
Cn1c(-c2ccccc2)c(/C=N/NC(=O)c2ccc(O)cc2)c2ccccc21	14.1 µM [falling, partial curve, poor fit]	
Cc1ccccc1C(=O)Nc1ccc2c(c1)OCO2	12.6 µM [falling, partial curve]	
COc1ccc(CNC(=O)/C(C)=C\C(=O)O)cc1	6.31 µM [falling, full curve, poor fit]	
O=C(CSc1ccccc1F)NCCCN1CCCC1=O	29.1 µM [rising, single point]	
O=C(CNC(=O)c1ccccc1F)c1ccc(Br)cc1	11.2 µM [falling, partial curve, poor fit]	
COc1ccc(Nc2nc(OC)nc(N3CCN(c4ccc(OC)cc4)CC3)n2)cc1	5.8 µM [rising, full curve, poor fit]	
Cc1occc1-c1nnc(SCC(N)=O)n1Cc1ccccc1	16.4 µM [falling, single point]	
Cc1oc(-c2cc(F)ccc2F)nc1CN1CCN(c2ncnc3ccccc23)CC1	12.6 µM [falling, single point]	
COc1ccccc1NS(=O)(=O)c1ccc(C)c(C(=O)N2CCN(c3ccc(O)cc3)CC2)c1	16.4 µM [falling, partial curve, poor fit]	
c1ccc(-n2nnnc2NCCc2c[nH]c3ccccc23)cc1	3.55 µM [rising, single point]	
O=C(Cc1c(O)c2ccccc2[nH]c1=O)NCc1ccc(F)cc1	29.1 µM [falling, partial curve, poor fit]	
O=C(N/N=C/c1ccc([N+](=O)[O-])o1)c1ccc2c(c1)OCO2	4.47 µM [falling, partial curve]	
S=c1nc[nH]c2nc[nH]c12	3.16 µM [rising, partial curve, poor fit] and 1.46 µM [rising, partial curve]	
Cc1nc(N2CCCCC2)c2c(C)c(C(=O)Nc3ccccc3C(F)(F)F)sc2n1	5.01 µM [rising, partial curve, poor fit]	
CN1CCSc2ccc(C(=O)Nc3cccc(F)c3)cc21	17.8 µM [falling, single point]	
O=C1OCCC1Sc1nnc(-c2ccccc2)o1 (centres undefined)	10 µM [falling, partial curve]	
Cc1ccc(-c2nnc(SCc3nc4ccccc4[nH]3)n2Cc2ccco2)cc1	17.8 µM [falling, partial curve, poor fit]	
COc1cc(C(=O)N/N=C(\C)Cn2nc([N+](=O)[O-])cc2C)ccc1O	13 µM [falling, partial curve]	
Cc1ccc(C(=O)COC(=O)c2ccccc2NC(=O)c2ccccc2)cc1[N+](=O)[O-]	3.66 µM [falling, partial curve]	
CC1=NN(C(N)=S)C(=O)C1N=Nc1ccc(Cl)cc1Cl (centres undefined)	17.8 µM [rising, partial curve, poor fit]	
O=C(Nc1ccc2c(c1)OCCO2)c1ccc(S(=O)(=O)N2CCCCC2)cc1	12.6 µM [falling, partial curve, poor fit]	

Compound	AC50 [1]	AC50 [2]
CC/C(O)=C1\C(=O)CC(C)(C)CC1=Nc1ccccc1C	1.3 µM [falling, partial curve, poor fit]	
Cc1cccc(/C=N/NC(=O)c2cc(Br)ccc2OCc2ccccc2)n1	35.5 µM [falling, single point]	
COc1cccc2sc(N3CCN(C(=O)c4ccco4)CC3)nc12	16.4 µM [falling, single point]	
CCOC(=O)N/N=C\c1ccc(-c2cc(Cl)ccc2Cl)o1	35.5 µM [falling, single point]	
COC(=O)c1sc(NC(=O)CC(C)C)c(C(=O)OC)c1C	32.6 µM [falling, single point]	
COc1ccccc1NC(=O)N1CCc2[nH]c3ccc(Cl)cc3c2C1	1 µM [falling, full curve, poor fit]	
CC(C)(C)CC(C)(C)NCC(O)COCCOc1ccc(Br)cc1 (centres undefined)	32.6 µM [falling, single point]	
NS(=O)(=O)c1ccc(CCNC(=O)NC2CCCCC2)cc1	10 µM [rising, partial curve, poor fit]	
COC(=O)c1sc2nc(C)nc(SCC(=O)Nc3sccc3C(N)=O)c2c1C	2.91 µM [falling, full curve]	
O=S(=O)(c1ccc(-c2cn3ccccc3n2)cc1)N1CCOCC1	29.1 µM [rising, single point]	
CCc1nc(Nc2ccc3nccnc3c2)c2oc3ccccc3c2n1	0.251 µM [falling, full curve, poor fit]	
CC(C)OCCCNC(=O)CN1C(=O)/C(=C/c2ccccc2F)Oc2ccccc21	22.4 µM [rising, single point]	
COc1ccc(C2CC(=O)Nc3cc(OC)c(OC)cc32)cc1Br (centres undefined)		14.1 µM [falling, partial curve]
CCCC(=O)Nc1nc2ccc(S(N)(=O)=O)cc2s1	25.9 µM [rising, single point]	
CCOC(=O)c1ccc(NC(=O)C2CCN(S(=O)(=O)CC)CC2)cc1	9.2 µM [rising, partial curve, poor fit]	
COc1ccc2o/c(=N/NC(=O)c3cccs3)c(C(N)=O)cc2c1	11.2 µM [falling, single point]	
CC(C)CN(C(=O)CSc1nc(-c2ccccc2)cn1N)c1c(N)n(Cc2ccccc2)c(=O)[nH]c1=O	23.1 µM [falling, partial curve]	
Cc1ccc(NC(=O)CSc2nc(=O)n(CCCN(C)C)c3c2CCC3)cc1F	12.6 µM [falling, partial curve]	
COC(=O)c1ccc(OCC(O)CN2C(=O)c3ccccc3S2(=O)=O)cc1 (centres undefined)	11.2 µM [rising, single point]	
CC(=O)c1ccccc1NC(=O)COC(=O)/C(=C/c1ccccc1)n1nnnc1C	11.2 µM [falling, partial curve]	
COc1cccc(-c2nn(-c3ccc(F)cc3)cc2C(=O)NCC2CCCO2)c1 (centres undefined)	32.6 µM [rising, single point]	

Part of the list above, reformatted.
Compound,AC50 [1],AC50 [2]
Cc1ccc(NC(=O)CSc2nc(=O)n(CCCN(C)C)c3c2CCC3)cc1F,"12.6 µM [falling, partial curve]",
COC(=O)c1ccc(OCC(O)CN2C(=O)c3ccccc3S2(=O)=O)cc1 (centres undefined),"11.2 µM [rising, single point]",

Remaining list, next part

Compound	AC50 [1]	AC50 [2]
COc1ccc(/C=N\NC(=O)c2cc(O)c(O)c(O)c2)cc1CN1CCN(c2ccc(F)cc2)CC1	29.1 µM [falling, single point]	
CC(c1ccc(Cl)cc1)n1c(-c2ccc3ccccc3n2)n[nH]c1=S (centres undefined)	20 µM [rising, partial curve, poor fit]	
Cc1noc(/C=C/N(C)C)c1S(=O)(=O)N1CCCC(C(=O)Nc2ccc3c(c2)OCO3)C1 (centres undefined)	0.58 µM [rising, full curve, poor fit]	
Cc1ccc(S(=O)(=O)Nc2ccc(N=Nc3ccc(O)cc3)cc2)cc1	29.1 µM [falling, single point]	23.1 µM [rising, partial curve, poor fit]
CC(C)CNC(=O)c1cc(-c2ccco2)on1	7.94 µM [falling, partial curve, poor fit]	
CC(C)c1ccc(OCC(O)CNC(C)c2ccccc2)cc1 (centres undefined)	3.16 µM [falling, partial curve, poor fit]	
C[C@H](CO)N1C[C@H](C)[C@@H](CN(C)C(=O)Nc2ccc3c(c2)OCO3)Oc2c(NS(=O)(=O)c3cn(C)cn3)cccc2C1=O	29.1 µM [rising, single point]	
Cc1cc(C)c2sc(NNC(=O)c3ccc(S(=O)(=O)N4CCc5ccccc5C4)cc3)nc2c1	20.6 µM [rising, single point]	
COc1ccc(-c2ccc(CCC(=O)O)n2-c2ccccc2OC)cc1	11.2 µM [rising, partial curve]	11.2 µM [falling, partial curve]
O=C(Oc1c(CN2CCOCC2)cc(Cl)c2cccnc12)c1ccccc1F		2.24 µM [falling, partial curve]
O=C(NNC1OC(CO)C(O)C(O)C1O)c1cccc(Br)c1 (centres undefined)	8.91 µM [falling, partial curve]	
CCSc1nnc(NC(=O)CSc2nc3c(c(=O)n2-c2ccccc2OC)SCC3)s1	25.9 µM [falling, partial curve, poor fit]	
CCOc1ccc(-c2[nH]ncc2Oc2cccc(OC)c2)c(O)c1	35.5 µM [rising, single point]	
COC(=O)C(NC(C)=O)(Nc1sc2c(c1C(N)=O)CCCC2)C(F)(F)F (centres undefined)	3.26 µM [rising, full curve, poor fit]	
CC(C)N1CCc2c(sc(NC(=O)c3cc(-c4cccs4)nc4ccccc34)c2C(N)=O)C1	16.4 µM [falling, partial curve, poor fit]	
O=C(COC(=O)Cn1cnc2ccccc21)Nc1ccc2c(c1)C(=O)c1ccccc1C2=O	1.64 µM [rising, partial curve, poor fit]	
COc1cc(C(=O)NCC2CCCO2)cc(OC)c1OC (centres undefined)	6.51 µM [rising, partial curve, poor fit]	
CC1CCc2c(sc3nc(C(C)(C)C)nc(N4CCN(C(=O)CCl)CC4)c23)C1 (centres undefined)	12.6 µM [falling, single point]	
COc1ccc2sc(N(CCCN(C)C)C(=O)c3ccc(S(=O)(=O)N(C)C4CCCCC4)cc3)nc2c1	23.1 µM [falling, single point]	
COC(=O)COc1ccc(S(=O)(=O)Nc2ccc(C(N)=O)cc2)cc1Cl	28.2 µM [rising, single point]	

Source: PubChem BioAssay AID493014 (National Center for Advancing Translational Sciences (NCATS), 2011)
